Consider one molecule from PMC11049971.

Sequences of proteins named here, by UniProt entry; tags and fusion partners are left off.
UniProt P09884: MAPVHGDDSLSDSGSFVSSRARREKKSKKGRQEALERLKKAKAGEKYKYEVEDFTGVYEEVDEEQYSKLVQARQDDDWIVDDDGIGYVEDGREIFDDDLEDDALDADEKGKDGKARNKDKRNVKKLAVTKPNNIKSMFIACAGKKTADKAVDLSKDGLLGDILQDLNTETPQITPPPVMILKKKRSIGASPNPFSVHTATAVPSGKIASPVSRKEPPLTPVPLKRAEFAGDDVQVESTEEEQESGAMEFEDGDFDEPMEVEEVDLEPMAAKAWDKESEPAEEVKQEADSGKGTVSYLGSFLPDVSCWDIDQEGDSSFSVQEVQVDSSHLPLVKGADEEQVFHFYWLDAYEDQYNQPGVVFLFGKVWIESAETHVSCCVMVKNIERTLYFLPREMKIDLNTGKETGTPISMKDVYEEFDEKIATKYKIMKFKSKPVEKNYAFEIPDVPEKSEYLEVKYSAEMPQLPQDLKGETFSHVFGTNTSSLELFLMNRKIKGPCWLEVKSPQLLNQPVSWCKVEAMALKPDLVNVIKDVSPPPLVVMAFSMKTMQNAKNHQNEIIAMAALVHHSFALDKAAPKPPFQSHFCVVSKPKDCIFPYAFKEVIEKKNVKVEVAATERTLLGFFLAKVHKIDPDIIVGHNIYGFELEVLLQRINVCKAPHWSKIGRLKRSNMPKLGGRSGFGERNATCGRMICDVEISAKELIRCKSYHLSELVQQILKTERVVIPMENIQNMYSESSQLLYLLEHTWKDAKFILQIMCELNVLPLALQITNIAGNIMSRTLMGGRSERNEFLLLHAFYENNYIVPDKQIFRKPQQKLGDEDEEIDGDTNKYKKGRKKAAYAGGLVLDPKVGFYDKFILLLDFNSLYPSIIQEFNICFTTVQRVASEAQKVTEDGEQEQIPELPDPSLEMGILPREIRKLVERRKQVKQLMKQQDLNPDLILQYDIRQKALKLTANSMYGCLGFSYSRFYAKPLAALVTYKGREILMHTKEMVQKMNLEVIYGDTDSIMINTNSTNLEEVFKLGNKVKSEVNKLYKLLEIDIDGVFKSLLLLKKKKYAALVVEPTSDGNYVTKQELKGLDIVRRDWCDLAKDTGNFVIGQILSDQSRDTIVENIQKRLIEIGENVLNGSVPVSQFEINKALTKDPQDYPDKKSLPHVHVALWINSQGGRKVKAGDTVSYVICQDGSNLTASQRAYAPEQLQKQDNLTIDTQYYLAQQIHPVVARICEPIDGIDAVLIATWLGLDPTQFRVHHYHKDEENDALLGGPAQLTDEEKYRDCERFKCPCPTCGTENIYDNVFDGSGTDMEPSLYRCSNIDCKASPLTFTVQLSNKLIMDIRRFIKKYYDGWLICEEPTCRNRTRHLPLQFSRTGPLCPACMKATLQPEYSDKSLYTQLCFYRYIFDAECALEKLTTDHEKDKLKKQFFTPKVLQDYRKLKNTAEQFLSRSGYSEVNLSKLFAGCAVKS

The target of this assay is DNA polymerase alpha catalytic subunit POLA1 (human (endogenous in HEK293T)) (UniProt P09884). The assay is described as follows: affinity purification with mass spectrometry.

No constants are given. Whether binding was seen depends on the method and setting. In cells and extracts the contact can be indirect. These calls come from enrichment with a bait or labelling near it, and not all partners need be listed.

B1: DNA primase subunit PRIM1 (protein, UniProt P49642 1-420)
chain: METFDPTELPELLKLYYRRLFPYSQYYRWLNYGGVIKNYFQHREFSFTLKDDIYIRYQSFNNQSDLEKEMQKMNPYKIDIGAVYSHRPNQHNTVKLGAFQAQEKELVFDIDMTDYDDVRRCCSSADICPKCWTLMTMAIRIIDRALKEDFGFKHRLWVYSGRRGVHCWVCDESVRKLSSAVRSGIVEYLSLVKGGQDVKKKVHLSEKIHPFIRKSINIIKKYFEEYALVNQDILENKESWDKILALVPETIHDELQQSFQKSHNSLQRWEHLKKVASRYQNNIKNDKYGPWLEWEIMLQYCFPRLDINVSKGINHLLKSPFSVHPKTGRISVPIDLQKVDQFDPFTVPTISFICRELDAISTNEEEKEENEAESDVKHRTRDYKKTSLAPYVKVFEHFLENLDKSRKGELLKKSDLQKDF
On to B1, for which the binding result is reported as “binds”.
